The values that follow come from doi:10.1101/2025.02.27.640524 (bioRxiv, 2025).

The chains behind the UniProt entries cited, without tags or fusion partners.
UniProt C8VTS4, whole entry: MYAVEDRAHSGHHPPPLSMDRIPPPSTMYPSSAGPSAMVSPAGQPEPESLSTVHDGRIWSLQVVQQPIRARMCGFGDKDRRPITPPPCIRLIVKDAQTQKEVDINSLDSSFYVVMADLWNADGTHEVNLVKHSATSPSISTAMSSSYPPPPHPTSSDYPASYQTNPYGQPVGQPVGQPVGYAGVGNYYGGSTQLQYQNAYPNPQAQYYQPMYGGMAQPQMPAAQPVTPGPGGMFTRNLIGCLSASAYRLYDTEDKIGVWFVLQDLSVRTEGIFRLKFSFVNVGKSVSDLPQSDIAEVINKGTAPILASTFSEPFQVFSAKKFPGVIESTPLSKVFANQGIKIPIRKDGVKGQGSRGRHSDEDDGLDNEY

Results are given in words; binding and its absence hold for the method and conditions named. Binding seen in cells or lysates may run through a third protein. A yes stands for co-enrichment or nearness to the bait. Other partners may have been found.

This test addresses VelB-GFP (full length A. nidulans Velvet-like B fused to GFP) (Aspergillus nidulans) (UniProt C8VTS4). Put plainly: affinity purification with mass spectrometry.

B1: catalase CatB, A. nidulans, endogenous (enzyme, UniProt P78619 16-722)
chain: VCPYMTGELGRRDTNPDATEATEEFLSEYYLDDTDSYLTTDVGGPIEDQQSLKAGARGSTLLEDFIFRQKIQRFDHERVPERAVHARGAGAHGVFTSYGDFSNITAASFLSAEGKETPVFVRFSTVAGSRGSSDLARDVHGFATRFYTDEGNFDIVGNNIPVFFIQDAIQFPDLIHAVKPKGDREIPQAATAHDAAWDFFSQQPSTLHTLLWAMAGHGIPRSFRHVDGFGVHTFRLVTEDGSTKLVKFHWKTLQGLASMVWEEAQQISGKNPDYMRQDLFESIEAGRYPEWELNVQIMDEEDQLRFGFDLFDPTKIVPEEYVPLTPLGKMTLNRNPRNYFAETEQVMFQPGHVVRGVDFTEDPLLQQGRLFSYLDTQLNRNGGPNFEQLPINQPRVAIHNNNRDGAGQMFIPLNPDAYSPNTLKGSTLKQANQTAGRGFFTAPDRTANGNLVRAKSSTFDDAWSQPRLFWNSLLPAEKQFVVNAIRFENANVKSDVVKNNVIVQLNRISNDLATRVAKAIGVDAPEPDNTYYHDNTTSNIGAFGHRLQSLAGLKIAVLASVDAEESFSAATALKAELSNDNLDVIVVAERFSNGVNQTYSASDAIQFDAVVVAPGAEKLFGAKSAANSSSTLYPAGRPLEILVDAFRFGKPVAALGSGSTAFDNAGINTAVEGVYVADAVDESFANNLEEGLTVFKFLDRFALDSDE
In the case of B1, the binding result is listed as “binds”.

B2: Velvet A (VeA), A. nidulans, endogenous (protein, UniProt C8VTV4 1-573)
chain: MATLAAPPPPLGESGNSNSVSRITREGKKITYKLNIMQQPKRARACGQGSKSHTDRRPVDPPPVIELNIFESDPHDDSNKTDITFVYNANFFLFATLEPERPIATGKLMTNQGSPVLTGVPVAGVAYLDKPNRAGYFIFPDLSVRNEGSYRFSFHLFEQIKDPKDATEGTQPMPSPVPGKLSSPQEFLEFRLEVISNPFIVYSAKKFPGLTTSTPISRMIAEQGCRVRIRRDVRMRRRGDKRTEDYDYDNERGYNNRRPDQYAGSDAYANAPERPRSTSISTNMDPYSYPSRRPSAVEYGQPIAQPYQRPMASTPAPSSTPIPAPIPMPGPVALPPSTPSPASAHAPAPPSVPLAAPPPLHTPSYQSHLSFGATQTQYPAPQLSHIPQQTTTPTHPYSPRSSISHSRNQSISEYEPSMGYPGSQTRLSAERPSYGQPSQTTSLPPLRHSLEPSVNSRSKTPSNMITSLPPIQSLSELPSTTSQPSSAIGSSPANEPGPRLWETNSMLSKRTYEESFGHDDRPLYNGMRPDSESYPGGMQRRPSYERSSLLDGPDQMAYKRANGRMVSKPATMR
As to B2, the binding result is “binds”.
